From PubChem BioAssay record AID1159506 (NCATS, 2015).

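Luminescence from an EWS-FLI1 target-promoter (NR0B1) reporter, set against a CMV-promoter reporter, two days after silencing single genes in TC32 Ewing sarcoma cells. Each siRNA was applied at 20 nM. A z-score of the log NR0B1-over-CMV signal, less the median of siRNAs with the same seed; more negative means a stronger specific loss of the NR0B1 reporter.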

The strongest results of the screen are mostly left out here. Sequences are the guide (antisense) strand, without overhang.

With UCUUGUUCUUAGAUGAACC against PKNOX1 the assay gave seed-corrected z-score 0.9244.
With UUUGUGAUGAGGAAAGGUU against TPP1 the assay gave seed-corrected z-score -0.7804.
With UUCAAUACUAUCAACAGCU against TSNARE1 the assay gave seed-corrected z-score -0.667.
With UUUAGAAAUAGGACCACUG against SCML1 the assay gave seed-corrected z-score -1.178.
With UCCCAGUUCAGCACAUUGC against FAM46A the assay gave seed-corrected z-score 0.4768.
With UACGUAUCCAGCAUCUCCC against GPR137B the assay gave seed-corrected z-score -0.09785.
With UUCAAGACCAGGUCGAUGU against CLPTM1L the assay gave seed-corrected z-score -0.2595.
With UCUAUCUGAAUCUAAGGGC against MASTL the assay gave seed-corrected z-score -0.3031.
With UUCAUGACCGUGAAGUGCU against TTLL12 the assay gave seed-corrected z-score 0.5717.
With UAUGCAAAUGGGUGUAUGC against FLJ45079 the assay gave seed-corrected z-score 0.3133.
With ACAGGGAUGAUGAAGUCCG against CTDSP1 the assay gave seed-corrected z-score 0.945.
With UUCCUAGCAAAGUAACAGC against HACL1 the assay gave seed-corrected z-score -0.5701.
With UGUUUAAUUAGUCUUCCUC against SPANXN5 the assay gave seed-corrected z-score -0.3246.
With UUUGGGAGAUCGACUCCGC against PRPF38A the assay gave seed-corrected z-score -0.4911.
With AAAGGUUGUUUAAAUAGUC against FGD5 the assay gave seed-corrected z-score 0.6481.
With ACAGUCAGUAGUGACAUCC against PPM1J the assay gave seed-corrected z-score -0.2247.
With UCCAGUUUAGAGUCAUUGC against S100A14 the assay gave seed-corrected z-score -0.03079.
With AAAUGAUCUCCUCUUGUCG against CENPN the assay gave seed-corrected z-score -1.11.
With UAGUUACUCAUUUACACUG against MRPL36 the assay gave seed-corrected z-score -0.1971.
With UACGGUAGUAGUCAGGAUG against SUMO2 the assay gave seed-corrected z-score -0.9898.
With UAUAGUUCGAAGCUUUUUC against CAPRIN2 the assay gave seed-corrected z-score 0.03416.
With CUGGCAAUUGUUGGCCUGG against AMH the assay gave seed-corrected z-score -1.616.
With AUACGUAACAGUUGACCGG against GJA5 the assay gave seed-corrected z-score -0.1084.
With UAAGGUACUCUUGUCAGGC against ZCCHC16 the assay gave seed-corrected z-score 0.3874.
With UACGUGUUCUACAGCUUGC against ADRBK2 the assay gave seed-corrected z-score -0.3362.
With UGCCUAUUCAGCAGGCCAC against LOC729056 the assay gave seed-corrected z-score -0.8085.
With UUCGGUCCUAAAGAACUCA against MFAP3L the assay gave seed-corrected z-score 2.382.
With AAAUUUCCUACAUACGGUU against CST9 the assay gave seed-corrected z-score 1.955.
With UUAAUAGUGGUCCUGAUGG against MRPS12 the assay gave seed-corrected z-score 0.6921.
With UUUGAUGAAGCCUUCAUCC against KCNA10 the assay gave seed-corrected z-score 0.07144.

Repeated from the top, 2 entries:

{"strand": "UCUUGUUCUUAGAUGAACC", "gene": "PKNOX1", "seed-corrected z-score": "0.9244"}
{"strand": "UUUGUGAUGAGGAAAGGUU", "gene": "TPP1", "seed-corrected z-score": "-0.7804"}